This test deals with cynomolgus monkey CD19 on peripheral blood B cells (cynomolgus monkey (Macaca fascicularis)). The experiment in a line: FACS on cynomolgus monkey PBMC, gated on CD20-positive B cells.

Results are given in words; binding and its absence hold for the method and conditions named. Some results given as binding are weak or reduced against the parent protein; the word gives no strength.

B1: FMC63.25-mIgG1 (antibody, V domains shown)
VH: EVTLKESGPVLVKPTETLTLTCTVSGFSLSDYGVSWIRQPPGKALEWLAVIWGSETTYYNSALKSRLTISKDTSKSQVVLTMTNMDPVDTATYYCAKHYYYGGSYAMDYWGQGTTVTVSS
VL: DIQMTQSPSSLSASVGDRVTITCRASQDISKYLNWYQQKPGGAVKLLIYHTSRLHSGVPSRFSGSGSGTDYTLTISSLQPEDFATYYCQQGNTLPYTFGGGTKVEIKR
With B1, the binding result is on record as “binds”.
